# Results published in the supplement of paper PMC3334620.
# In all, about 33,000 sequences were measured (“E-score (-0.5 to 0.5)”: median about -0.015, highest 2% from about 0.3 on). Some of the results follow.
# Target: T1, Abf1 (UniProt P14164)
# T1 sequence: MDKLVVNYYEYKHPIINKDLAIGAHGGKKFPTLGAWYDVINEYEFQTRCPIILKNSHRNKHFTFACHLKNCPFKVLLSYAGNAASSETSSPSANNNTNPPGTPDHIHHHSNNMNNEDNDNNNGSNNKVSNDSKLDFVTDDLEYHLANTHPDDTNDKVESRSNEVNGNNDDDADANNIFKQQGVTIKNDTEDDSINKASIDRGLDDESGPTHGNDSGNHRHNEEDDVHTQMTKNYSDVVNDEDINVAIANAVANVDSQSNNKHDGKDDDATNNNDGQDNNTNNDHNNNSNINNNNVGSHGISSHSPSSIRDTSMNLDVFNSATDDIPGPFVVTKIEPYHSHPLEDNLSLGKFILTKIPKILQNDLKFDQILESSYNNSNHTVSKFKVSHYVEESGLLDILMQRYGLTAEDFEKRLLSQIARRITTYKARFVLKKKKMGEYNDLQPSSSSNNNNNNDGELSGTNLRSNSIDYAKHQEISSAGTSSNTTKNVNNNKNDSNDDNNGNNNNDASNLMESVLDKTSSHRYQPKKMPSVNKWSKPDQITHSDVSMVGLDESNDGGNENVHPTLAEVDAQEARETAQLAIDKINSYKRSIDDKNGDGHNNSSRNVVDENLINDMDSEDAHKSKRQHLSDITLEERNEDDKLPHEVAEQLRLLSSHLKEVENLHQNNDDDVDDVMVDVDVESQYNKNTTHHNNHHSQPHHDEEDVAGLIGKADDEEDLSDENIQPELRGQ
# Experiment: PBM E-score (8-mer binding enrichment) (E-score (-0.5 to 0.5)); higher = stronger / more preferred TF binding
# Conditions: protein concentration: 200 nM; construct: GST-full length
# How it was run: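 For each ungapped eight-base word taken together with its reverse complement, the Universal PBM Analysis Suite assigned an E-score. Binding data came from GST-tagged yeast transcription factors, applied at about 100-200 nM, on universal all-10-mer Agilent arrays made double-stranded by primer extension. Fluorescent anti-GST marked bound protein, and scans were normalised with masliner.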
row,Sequence,PBM E-score
1,GGCGCCCA,0.126
2,CCGTAAAG,0.14
3,AAATCATG,0.215
4,CCAACGGA,-0.12
5,ACCGCGTA,-0.0894
6,AACGATCT,0.303
7,GCTACTCA,-0.129
8,ATACAGGA,0.0607
9,AGCGCACT,-0.214
10,ACCATCGG,-0.177
11,CTCAACTC,-0.0832
12,CCGGTCAC,0.05
13,AGAAACTC,-0.24
14,ACTGTTAG,-0.0786
15,AGTCTACC,-0.19
16,GCTCCGCC,-0.0741
17,AGGGACCA,-0.127
18,GCATAGAC,-0.0323
19,AGAAACAT,0.071
20,ACGTTCGG,-0.0461
21,GCACGAGC,0.0977
22,CGAAGTGA,0.272
23,ACAAGTGA,0.2
24,CACTAACC,-0.0736
25,AGGACAGC,-0.118

row,Sequence,PBM E-score
1,GACACCCC,-0.211
2,AGCGCGCC,-0.0977
3,ATGAGCAA,0.135
4,AAGACGAT,0.237
5,GCGTACTA,-0.0501
6,CGCTTAAG,0.0513
7,AAACAGAC,-0.0408
8,GGTGAATA,-0.0317
9,ACGGACTA,0.113
10,CCGTCGCC,-0.0554
11,ATCTGATC,0.0914
12,TAACCGAA,-0.152
13,AACGTTCA,-0.0413
14,ATCAAAAT,0.181
15,GGTAGGAA,-0.0834
16,AATACTAA,0.0807
17,CCAAGAAA,0.0959
18,TGCACGCA,0.0179
19,CATGCGTA,0.0843
20,AGGGCATC,-0.237
21,AAGCCGGC,-0.0655
22,AGCGTATA,0.0691
23,ATATACTC,0.113
24,CACTATAA,0.105
25,CATCCAGG,-0.128

# Quoted from the results shown for reference:
row,Sequence,PBM E-score
24,CACTAACC,-0.0736
25,AGGACAGC,-0.118
1,GACACCCC,-0.211
2,AGCGCGCC,-0.0977

# The list continues:

row,Sequence,PBM E-score
1,GGAACCAC,-0.209
2,ACGCAGCT,-0.0811
3,AGCAATTG,0.0885
4,CCAAGGTC,-0.142
5,GCGGTCTA,-0.0821
6,CGCTGATC,-0.0665
7,AAATCCGA,-0.0032
8,CGTGGTAG,-0.0312
9,GTGACCTA,0.212
10,AGCTCAGG,-0.0864
11,AGTTTTGG,-0.0612
12,CCCCATAC,-0.266
13,CCTTGTAC,0.0616
14,CACTCGAG,-0.0424
15,GATCGATC,-0.238
16,GATGTGAC,0.0541
17,CCTCCTCC,-0.243
18,CCTGGAGA,0.0372
19,GACATGGA,0.0508
20,CGGTGGAC,0.00208
21,ATGTACCA,0.0423
22,GCCAGCCA,-0.194
23,CAACTACA,0.0451
24,CCCTGGGA,-0.248
25,CCCTGAAG,-0.12

# Three records picked at random from the list so far, as already listed:
row,Sequence,PBM E-score
19,GACATGGA,0.0508
2,ACGCAGCT,-0.0811
12,CCCCATAC,-0.266

# (further entries)

row,Sequence,PBM E-score
1,GACTTGAA,-0.0208
2,TAATGTAA,0.152
3,AGCAGCCA,0.0669
4,AGAAACCC,-0.219
5,AGTCACCG,0.111
6,CAAGAAAA,0.0565
7,CAATGGAG,-0.101
8,TACCCGCA,0.0949
9,AGAAAGCC,-0.112
10,CGTTCTAC,0.083
11,CTCTCCTC,-0.402
12,ACCCGCGG,0.118
13,GCTTACAA,-0.0814
14,AGCCTCGA,-0.0972
15,AAAGGGAT,0.107
16,CTTAGTGA,0.305
17,AGACCATA,0.0105
18,CGAGCCGA,-0.063
19,ATGACTCC,-0.0488
20,CTCGGGCA,0.0935
21,GGTACCCA,-0.0501
22,AAGGGCCG,-0.144
23,ATTACCAA,0.0612
24,CCGCTACA,-0.124
25,AACATGCC,-0.132

row,Sequence,PBM E-score
1,GCAAGTCC,-0.418
2,AAGGCTAT,-0.0422
3,AGGCAGAA,-0.154
4,CATGTGGC,0.0326
5,CCCGAAAG,-0.148
6,AGATCACA,0.138
7,ATTGCAAG,-0.0324
8,GGCGCGCC,-0.0677
9,ACTACAAT,0.112
10,CTAGCCGC,0.00077
11,CCACTTAC,-0.0948
12,AGAGATCC,-0.0902
13,AATCAAAC,0.174
14,CCCCCCGG,-0.483
15,GGTTCATA,-0.0971
16,ATAACACG,0.0352
17,ATTTCCCA,0.119
18,AGGCATCC,-0.104
19,GGAAGTTA,0.136
20,CTGTGAAG,-0.0974
21,CCTGTTAC,-0.0292
22,CGAACAGC,-0.165
23,CCCTGTGA,-0.0363
24,CGATCTAC,0.108
25,GTTGCTAA,0.106

row,Sequence,PBM E-score
1,AAAGGGGG,-0.335
2,TTGACAAA,0.182
3,CCAACAGG,-0.363
4,CTATATAC,0.364
5,ACCTGATA,0.0282
6,CCCGTTCA,-0.0185
7,ACGATCCC,0.101
8,CCAAGCGG,-0.254
9,GGTACTAA,0.0193
10,ACAATCGT,0.107
11,GTGGCTAA,0.0853
12,ACACGAGT,0.228
13,AGAGCAAG,-0.0779
14,CGGAATTA,0.00678
15,GCGGTATA,-0.0336
16,CGTCCATA,0.164
17,GGCCACCA,0.0495
18,TCTAAAGA,0.0916
19,CCTTAGCC,-0.0679
20,AATAGATC,0.164
21,CGCGAGGC,-0.0829
22,ACGGGCAC,0.0739
23,AACCTTAT,-0.184
24,ACTCCGGA,0.113
25,AACGGATA,0.178

row,Sequence,PBM E-score
1,CCAGTCAA,-0.175
2,ATGCGAAT,-0.0624
3,AATAATGA,0.188
4,GAAAATGA,0.179
5,ACCGGTAC,-0.164
6,GAATGCAA,-0.0204
7,AGACCAAG,-0.212
8,AGATAGGG,-0.144
9,CGATAAGC,0.141
10,TGGAGGAA,-0.22
11,CTACCGCC,-0.183
12,AAAAGTCC,0.0886
13,AAGAAGGT,0.0307
14,AGTCCACT,-0.079
15,CGATTCTA,-0.0979
16,CTGCCAAA,0.0867
17,AGAAGGCC,-0.0673
18,AAGAACGG,-0.00472
19,AAGTCATC,0.255
20,AGGGACTG,-0.197
21,ATACGCGG,-0.114
22,ATAGCCCG,-0.169
